Results are given in words; binding and its absence hold for the method and conditions named. For part of these data: In cells and extracts the contact can be indirect. Some binding calls cover weakened binding; strength is not graded here. For part of these data: Tags and fused reporters may be left off the sequences shown.
T1: SPY^WT, GST-tagged and 6His-SUMO-tagged copies co-expressed (Arabidopsis thaliana) (UniProt Q96301)
T1 sequence: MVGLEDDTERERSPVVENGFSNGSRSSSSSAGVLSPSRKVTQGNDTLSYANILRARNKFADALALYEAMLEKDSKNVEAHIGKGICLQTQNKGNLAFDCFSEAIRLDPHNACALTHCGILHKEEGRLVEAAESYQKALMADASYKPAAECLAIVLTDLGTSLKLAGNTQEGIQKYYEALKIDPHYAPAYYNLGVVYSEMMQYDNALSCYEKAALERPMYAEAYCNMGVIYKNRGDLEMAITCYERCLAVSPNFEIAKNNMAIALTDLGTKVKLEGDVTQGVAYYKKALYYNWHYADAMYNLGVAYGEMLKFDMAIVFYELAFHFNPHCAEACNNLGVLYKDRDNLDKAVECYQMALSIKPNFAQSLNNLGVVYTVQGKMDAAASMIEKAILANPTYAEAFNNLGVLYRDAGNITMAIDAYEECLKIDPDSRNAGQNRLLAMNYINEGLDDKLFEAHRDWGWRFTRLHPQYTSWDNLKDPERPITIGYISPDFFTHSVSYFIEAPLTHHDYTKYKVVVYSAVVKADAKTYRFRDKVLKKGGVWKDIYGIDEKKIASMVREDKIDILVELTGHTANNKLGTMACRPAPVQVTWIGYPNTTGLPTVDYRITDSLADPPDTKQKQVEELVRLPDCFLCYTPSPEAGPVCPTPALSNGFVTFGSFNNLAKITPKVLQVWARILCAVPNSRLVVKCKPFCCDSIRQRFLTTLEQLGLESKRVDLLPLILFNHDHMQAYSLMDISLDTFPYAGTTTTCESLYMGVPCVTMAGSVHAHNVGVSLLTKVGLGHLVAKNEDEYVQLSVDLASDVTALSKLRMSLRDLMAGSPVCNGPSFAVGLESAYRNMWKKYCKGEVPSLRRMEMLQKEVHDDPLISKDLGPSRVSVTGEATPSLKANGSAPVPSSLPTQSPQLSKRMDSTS

T2: Arabidopsis SPINDLY (SPY), wild type, full-length (Arabidopsis thaliana) (UniProt Q96301)
T2 sequence: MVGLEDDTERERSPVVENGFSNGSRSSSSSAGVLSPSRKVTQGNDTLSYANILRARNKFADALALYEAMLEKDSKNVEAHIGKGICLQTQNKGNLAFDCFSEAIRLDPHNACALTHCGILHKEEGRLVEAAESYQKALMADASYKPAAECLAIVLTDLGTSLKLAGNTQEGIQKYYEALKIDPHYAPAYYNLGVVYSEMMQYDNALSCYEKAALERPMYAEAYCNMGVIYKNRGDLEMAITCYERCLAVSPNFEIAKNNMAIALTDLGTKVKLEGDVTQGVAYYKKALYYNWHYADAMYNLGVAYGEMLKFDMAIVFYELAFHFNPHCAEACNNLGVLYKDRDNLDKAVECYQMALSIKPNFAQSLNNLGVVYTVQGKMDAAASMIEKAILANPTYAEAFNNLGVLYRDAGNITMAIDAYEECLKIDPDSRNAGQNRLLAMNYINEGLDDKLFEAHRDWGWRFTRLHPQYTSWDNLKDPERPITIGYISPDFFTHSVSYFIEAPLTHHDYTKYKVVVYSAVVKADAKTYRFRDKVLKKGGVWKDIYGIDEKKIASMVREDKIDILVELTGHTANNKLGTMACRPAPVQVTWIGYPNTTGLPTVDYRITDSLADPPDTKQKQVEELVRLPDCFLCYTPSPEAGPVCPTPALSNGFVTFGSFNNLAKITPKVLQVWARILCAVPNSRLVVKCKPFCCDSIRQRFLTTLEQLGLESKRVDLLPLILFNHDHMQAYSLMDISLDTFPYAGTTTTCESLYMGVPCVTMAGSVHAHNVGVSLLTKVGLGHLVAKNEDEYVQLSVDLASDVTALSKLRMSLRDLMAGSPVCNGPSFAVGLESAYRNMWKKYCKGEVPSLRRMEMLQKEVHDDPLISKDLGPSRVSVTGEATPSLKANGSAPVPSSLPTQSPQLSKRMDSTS


Assays:
[1] = molecular target: T1, SPY^WT, GST-tagged and 6His-SUMO-tagged copies co-expressed (Arabidopsis thaliana); experiment: pull-down; tandem affinity co-purification: 6His-SUMO-tagged SPY co-expressed with GST-tagged SPY^WT in E. coli, GST affinity purification followed by Ni2+ affinity purification
[2] = molecular target: T2, Arabidopsis SPINDLY (SPY), wild type, full-length (Arabidopsis thaliana); experiment: SEC; Superdex 200 Increase 10/300 GL, 0.5 mL injected; 50 mM Tris pH 7.9, 300 mM NaCl, 0.5 mM TCEP, 2 mM benzamidine; samples incubated at 4 °C for 6 h; peak fractions on SDS-PAGE; both purified

Row | Binder | binding [1] | binding [2]
1 | SPY^WT, GST-tagged and 6His-SUMO-tagged copies co-expressed (enzyme, UniProt Q96301 1-914) MVGLEDDTERERSPVVENGFSNGSRSSSSSAGVLSPSRKVTQGNDTLSYANILRARNKFADALALYEAMLEKDSKNVEAHIGKGICLQTQNKGNLAFDCFSEAIRLDPHNACALTHCGILHKEEGRLVEAAESYQKALMADASYKPAAECLAIVLTDLGTSLKLAGNTQEGIQKYYEALKIDPHYAPAYYNLGVVYSEMMQYDNALSCYEKAALERPMYAEAYCNMGVIYKNRGDLEMAITCYERCLAVSPNFEIAKNNMAIALTDLGTKVKLEGDVTQGVAYYKKALYYNWHYADAMYNLGVAYGEMLKFDMAIVFYELAFHFNPHCAEACNNLGVLYKDRDNLDKAVECYQMALSIKPNFAQSLNNLGVVYTVQGKMDAAASMIEKAILANPTYAEAFNNLGVLYRDAGNITMAIDAYEECLKIDPDSRNAGQNRLLAMNYINEGLDDKLFEAHRDWGWRFTRLHPQYTSWDNLKDPERPITIGYISPDFFTHSVSYFIEAPLTHHDYTKYKVVVYSAVVKADAKTYRFRDKVLKKGGVWKDIYGIDEKKIASMVREDKIDILVELTGHTANNKLGTMACRPAPVQVTWIGYPNTTGLPTVDYRITDSLADPPDTKQKQVEELVRLPDCFLCYTPSPEAGPVCPTPALSNGFVTFGSFNNLAKITPKVLQVWARILCAVPNSRLVVKCKPFCCDSIRQRFLTTLEQLGLESKRVDLLPLILFNHDHMQAYSLMDISLDTFPYAGTTTTCESLYMGVPCVTMAGSVHAHNVGVSLLTKVGLGHLVAKNEDEYVQLSVDLASDVTALSKLRMSLRDLMAGSPVCNGPSFAVGLESAYRNMWKKYCKGEVPSLRRMEMLQKEVHDDPLISKDLGPSRVSVTGEATPSLKANGSAPVPSSLPTQSPQLSKRMDSTS | binds | –
2 | 6His-SUMO-tagged SPY^K665A (enzyme, UniProt Q96301 1-914) MVGLEDDTERERSPVVENGFSNGSRSSSSSAGVLSPSRKVTQGNDTLSYANILRARNKFADALALYEAMLEKDSKNVEAHIGKGICLQTQNKGNLAFDCFSEAIRLDPHNACALTHCGILHKEEGRLVEAAESYQKALMADASYKPAAECLAIVLTDLGTSLKLAGNTQEGIQKYYEALKIDPHYAPAYYNLGVVYSEMMQYDNALSCYEKAALERPMYAEAYCNMGVIYKNRGDLEMAITCYERCLAVSPNFEIAKNNMAIALTDLGTKVKLEGDVTQGVAYYKKALYYNWHYADAMYNLGVAYGEMLKFDMAIVFYELAFHFNPHCAEACNNLGVLYKDRDNLDKAVECYQMALSIKPNFAQSLNNLGVVYTVQGKMDAAASMIEKAILANPTYAEAFNNLGVLYRDAGNITMAIDAYEECLKIDPDSRNAGQNRLLAMNYINEGLDDKLFEAHRDWGWRFTRLHPQYTSWDNLKDPERPITIGYISPDFFTHSVSYFIEAPLTHHDYTKYKVVVYSAVVKADAKTYRFRDKVLKKGGVWKDIYGIDEKKIASMVREDKIDILVELTGHTANNKLGTMACRPAPVQVTWIGYPNTTGLPTVDYRITDSLADPPDTKQKQVEELVRLPDCFLCYTPSPEAGPVCPTPALSNGFVTFGSFNNLAAITPKVLQVWARILCAVPNSRLVVKCKPFCCDSIRQRFLTTLEQLGLESKRVDLLPLILFNHDHMQAYSLMDISLDTFPYAGTTTTCESLYMGVPCVTMAGSVHAHNVGVSLLTKVGLGHLVAKNEDEYVQLSVDLASDVTALSKLRMSLRDLMAGSPVCNGPSFAVGLESAYRNMWKKYCKGEVPSLRRMEMLQKEVHDDPLISKDLGPSRVSVTGEATPSLKANGSAPVPSSLPTQSPQLSKRMDSTS | binds | –
3 | Arabidopsis DELLA truncation covering the SPY-targeting region (DELLA^1–205) (domain or fragment, UniProt Q9SLH3 1-205) MKRDHHQFQGRLSNHGTSSSSSSISKDKMMMVKKEEDGGGNMDDELLAVLGYKVRSSEMAEVALKLEQLETMMSNVQEDGLSHLATDTVHYNPSELYSWLDNMLSELNPPPLPASSNGLDPVLPSPEICGFPASDYDLKVIPGNAIYQFPAIDSSSSSNNQNKRLKSCSSPDSMVTSTSTGTQIGGVIGTTVTTTTTTTTAAGES | – | no binding

— paper PMC9715652, “Structural insights into mechanism and specificity of the plant protein O-fucosyltransferase SPINDLY” (Nature Communications, 2022)
